Laboratory results as given in article PMC11593002 (Current Issues in Molecular Biology, 2024).
Entries after “also recorded” stand apart in the source; their conditions may differ.

Experiments:
Assay type in all cases: cell-based
MCF-10A = assay: MTT-dye reduction antiproliferative assay, MCF-10A; conditions: Iscador Qu both concentrations (50 or 100 µg/mL) or not specified
Excerpt: (§1) Breast cell lines (MCF-10A, MCF-7, and MDA-MB-231) were purchased from the American Type Culture Collection—ATCC (Manassas, VA, USA). MCF-7 and MDA-MB-231 were cultivated in Dulbecco’s modified Eagle’s medium (DMEM), supplemented with 10% fetal bovine serum (FBS), 1% sodium pyruvate, and 1% MEM non-essential amino acids (NEAA) without antibiotics. The non-tumorigenic cell line (MCF-10A) was cultivated in DMEM medium (Sigma-Aldrich, St. Louis, MO, USA) and supplemented with 10% FBS, 1% sodium pyruvate, 1% non-essential amino acids (NEAA), 20 ng/mL human epidermal growth factor (hEGF), 10 μg/mL insulin, and 0.5 μg/mL hydrocortisone without antibiotics. All cell lines were maintained in a humidified atmosphere with 5% CO2 at 37 °C.
(§2) The antiproliferative activity was tested via using the standard MTT-dye reduction assay described by Mosmann. The method is based on the metabolism of the tetrazolium salt MTT to insoluble formazan. The formazan absorption was registered using a microplate reader at λ = 540 nm. The measured absorption is an indicator of cell viability and metabolic activity. Antiproliferative activities are expressed as IC50 values (concentrations required for 50% inhibition of cell growth) and were calculated using non-linear regression analysis (GraphPad Prism 8.0.2 Software, San Diego, CA, USA).

MCF-7 = assay: MTT-dye reduction antiproliferative assay, MCF-7; conditions: Iscador Qu both concentrations (10 and 20 µg/mL) or not specified
Excerpt: as §1, §2

MDA-MB-231 = assay: MTT-dye reduction antiproliferative assay, MDA-MB-231; conditions: Iscador Qu both concentrations (40 and 80 µg/mL) or not specified
Excerpt: as §1, §2

## CC/C(=C(\c1ccccc1)c1ccc(OCCN(C)C)cc1)c1ccccc1 [Tamoxifen]
MCF-10A
  effect of combined treatment with Iscador Qu on IC50 / antiproliferative effect: decrease in IC50 dose
MCF-7
  effect of combined treatment with Iscador Qu on IC50 / antiproliferative effect: antagonistic effect; also recorded: negatively affected
MDA-MB-231
  effect of combined treatment with Iscador Qu on IC50 / antiproliferative effect: negatively affected; also recorded: No significant alteration in IC50
